The target of data set [1] is T1, His-GlnR (Mycobacterium smegmatis) (UniProt A0R4C4).
T1 sequence (looked up, limits assumed): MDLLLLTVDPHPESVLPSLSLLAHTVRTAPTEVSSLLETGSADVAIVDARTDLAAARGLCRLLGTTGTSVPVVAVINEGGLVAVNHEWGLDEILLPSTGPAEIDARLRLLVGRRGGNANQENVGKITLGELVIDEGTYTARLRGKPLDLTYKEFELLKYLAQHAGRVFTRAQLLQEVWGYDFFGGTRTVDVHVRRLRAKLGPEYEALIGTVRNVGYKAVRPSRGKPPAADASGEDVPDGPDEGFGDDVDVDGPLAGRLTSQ
The experiment in a line: EMSA. To be noted: EMSA: 2 ng biotin probe in 10 uL, Beyotime chemiluminescent kit, buffer not stated, recombinant protein, protein details: His, label: 5' biotin, probe letters rebuilt from the primers and the genome. A general note: A gel shift assay detects complexes by their altered migration in electrophoresis.

Data set [2] concerns the target T2, His-PrpR (UniProt A0R6R5).
T2 sequence (looked up, limits assumed): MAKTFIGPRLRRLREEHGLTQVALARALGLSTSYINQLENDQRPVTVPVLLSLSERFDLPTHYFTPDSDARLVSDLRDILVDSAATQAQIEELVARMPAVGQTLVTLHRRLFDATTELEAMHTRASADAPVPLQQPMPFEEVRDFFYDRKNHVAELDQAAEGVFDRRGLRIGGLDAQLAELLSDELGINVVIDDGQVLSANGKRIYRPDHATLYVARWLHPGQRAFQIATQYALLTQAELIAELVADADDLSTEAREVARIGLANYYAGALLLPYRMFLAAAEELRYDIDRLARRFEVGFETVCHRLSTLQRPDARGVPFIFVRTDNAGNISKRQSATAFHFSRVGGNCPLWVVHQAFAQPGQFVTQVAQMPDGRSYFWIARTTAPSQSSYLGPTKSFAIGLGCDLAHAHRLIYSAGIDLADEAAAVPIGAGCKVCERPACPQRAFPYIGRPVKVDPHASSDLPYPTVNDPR
The experiment in a line: EMSA. The note with it: 0.5-1.5 uM PrpR, displaced by 0.05-0.5 uM GlnR; EMSA: 2 ng biotin probe in 10 uL, Beyotime chemiluminescent kit, buffer not stated; recombinant protein; protein details: His; label: 5' biotin; probe letters rebuilt from the primers and the genome.

Data set [3] deals with T1, His-GlnR (Mycobacterium smegmatis). As to the kind of experiment: BLI. To be noted: 37 C, 200 mM KCl, 2 mM Mg2+, BLI: 10 mM HEPES pH 8.0, 2 mM MgCl2, 0.1 mM EDTA, 10 ug/ml BSA, 0.02% Tween-20 (running buffer), recombinant protein, protein details: His, label: 5' biotin, probe letters rebuilt from the primers and the genome.
Data set [4] concerns the target T2, His-PrpR. The experiment in a line: BLI. The note with it: 37 C, 200 mM KCl, 2 mM Mg2+, BLI: 10 mM HEPES pH 8.0, 2 mM MgCl2, 0.1 mM EDTA, 10 ug/ml BSA, 0.02% Tween-20 (running buffer), recombinant protein, protein details: His, label: 5' biotin, probe letters rebuilt from the primers and the genome.

pKd: −log10 of the molar value. The exact form of at least one protein or probe is not confirmed. For some assays here: A weaker result is weaker than the reference pair of the same experiment. Tags and fusion partners may be left off the protein sequences shown.

Consider “ATATGCGGTCGGCGAGGAGACGAAAGCCGTCGCCTGTCTCTTCTCGCTCTGAATCAATCACGTTTAACAGTACGGGCGTACTGACCTGCGAAAAGTGGCTACTCGCCGGTAGCTTCTGAACCGGTACAGCCATCATATTTCTTCACAATCTTCGCAAGTTAACGCACACGTTTCGCCAAAACCTGGCAAAGGAAACGGGTGGACCTGCGGTTATGTCATGTGCCATCGTCGGGTTAGCACACCAGTGAAGCTGCTGCGGTGTTAACAACCGCAGTGACTTAACAACCGAAGGAGCCGTCCAATGTCGACCGTTGGCACCCCGAAGTCCCCCGAGCAGATCCAGCACGACTGGGATCACAAC (double strand) [Picl a-site mutant]”, for which the binding result in data set [1] (0.5 uM GlnR) is reported as “binds more weakly”.

The pKd is the Kd on a negative log10 scale, so that one unit is a factor of ten. For the sequence “ATATGCGGTCGGCGAGGAGACGAAAGCCGTCGCCTGTCTCTTCTCGCTCTGAATCAATCACGTTTAACAGTACGGGCGTACTGACCTGCGAAAAGTGGCTACTCGCCGGTAGCTTCTGAACCGGTACAGCCATCATATTTCTTCACAATCTTCGCAAGTTAACGCACACGTTTCGCCAAAATTGGCAAAGGAAACGGGTGGACCTGCGGTTATGTCATGTGCCATCGTCGGGTTAGCACACCAGTGAAGCTGCTGCGGTGTTAACAACCGCAGTGACTTAACAACCGAAGGAGCCGTCCAATGTCGACCGTTGGCACCCCGAAGTCCCCCGAGCAGATCCAGCACGACTGGGATCACAAC (double strand) [Picl (Msm icl promoter)]”, the binding result (in data set [1] (0.25-1.0 uM GlnR); with His-PrpR [2]) was “binds” in each case. Moreover, the pKd in data set [3] is 7.47; with His-PrpR [4], 6.77.

The values are drawn from article PMC7886694.
